# Results from the supplement of paper PMC12578635.
# ± gives the standard deviation of the averaged measurements. Some of the results follow. Single values are uncertain, as repeats are few or missing.
# Test system: RAW 264.7 macrophages infected with S. aureus JE2-lux
# Test: host macrophage viability (CellTiter-Fluor) relative to DMSO vehicle; higher = more viable host cells
# Details: 10 µM; treatment time 4 h; gentamicin 50 µg/ml
row,SMILES,host macrophage viability [%]
1,CC(=O)c1cccc(NC(=O)NN2CCOCC2)c1,111
2,O=C(NCC1COCCO1)c1ccc(C(F)(F)F)nc1N1CCN(CCO)CC1 (stereo not drawn),114
3,CCCc1nnc(SCC(=O)Nc2ccccc2C(=O)OC)n1-n1cccc1,113
4,O=c1[nH]cncc1-c1nc(-c2ccc(Cl)cc2)no1,109
5,CCOc1ccc(CNC(=O)CCn2cnc3onc(-c4ccccc4)c3c2=O)cc1,106
6,Cn1c(SCC(=O)N/N=C/c2ccc(Cl)cc2)nc2ccccc21,121
7,O=C(NCCc1ccccc1)c1cccnc1Nc1ccc2c(c1)OCCO2,103
8,COc1cc(NS(=O)(=O)c2ccc(NC(=O)Nc3ccccc3)cc2)nc(OC)n1,124
9,O=C(NCc1ccc2[nH]c3c(c2c1)CCCC3)C(=O)c1c[nH]c2ccccc12,116 ± 6.8
10,COc1ccc(NC(=O)Cn2c(=O)n(-c3ccccc3)c(=O)c3oc4ccccc4c32)cc1OC,110
11,Cc1cc(=O)n2nc(-c3ccc(Cl)cc3)nc2n1CC(=O)Nc1ccccc1F,117
12,Cc1onc(-c2ccccc2Cl)c1C(=O)Oc1cc(N)n(S(=O)(=O)c2ccc(F)cc2)n1,113
13,CC(C)c1ccc(Cc2cnc(N3C(=N)SCC3=O)s2)cc1,131
14,O=C(CSc1nc(=O)n(CCO)c2c1CCCC2)Nc1ccccc1[N+](=O)[O-],101
15,O=C(CN1C(=O)c2ccccc2C1=O)Nc1ccc2c(c1)C(=O)NC2=O,114
16,CCc1cccc(NC(=O)c2c(-c3ccccc3)nnc3ccccc23)c1,120
17,Cc1nn2c(C)c(C(=O)NCc3ccc(F)cc3)cnc2c1-c1ccccc1,110
18,O=C(O)CCc1nc(N2CCCCC2)c2c(-c3ccc(F)cc3)noc2n1,111
19,Cc1nc2ccc(C(=O)NC(c3ccncc3)c3ccccc3C)cc2s1 (stereo not drawn),118
20,Clc1ccc(-n2ncc3c(Cl)ncnc32)cc1,122
21,CCc1cc2ccc(C)c(C)c2nc1SCC(=O)NNC(=O)c1ccco1,110
22,NC(=O)N/N=C/c1sc(=O)n(Cc2cccc(C(=O)O)c2)c1Cl,121
23,O=C1C=C(Nc2ccccc2)C(=O)N1c1ccccc1Cl,101

# As a short view, part of the list above.
row,SMILES,host macrophage viability [%]
22,NC(=O)N/N=C/c1sc(=O)n(Cc2cccc(C(=O)O)c2)c1Cl,121
23,O=C1C=C(Nc2ccccc2)C(=O)N1c1ccccc1Cl,101

# (cont.)

row,SMILES,host macrophage viability [%]
1,COc1ccc(CCNC(=O)Cc2csc3nc(-c4ccc(F)cc4)cn23)cc1OC,118
2,O=C(Nc1cccc2c1CCCC2)c1cc(-c2ccccn2)[nH]n1,124
3,CCn1c(SCc2nc(-c3cccc(Cl)c3)no2)nc2cc3c(cc2c1=O)OCO3,129
4,COc1ccc(CNC(=O)c2cc(-c3ccccc3F)nc3[nH]nc(-c4cccc(OC)c4)c23)cc1,140
5,COc1ccc(C(=O)NCC(c2cccs2)N2CCc3ccccc3C2)cc1 (stereo not drawn),113
6,O=C(Nc1ccc2c(c1)OCCO2)C(=O)Nc1cccc2cccnc12,111
7,CSc1cccc2sc(Nc3cccc(C)c3)nc12,123
8,Cc1noc2ncnc(NCCN3CCCCC3C)c12 (stereo not drawn),114
9,O=C1c2ccccc2-c2nn(C(=O)C3CCN(S(=O)(=O)c4cccs4)CC3)c3cccc1c23,149
10,CC(=O)Nc1ccc(NC(=O)Cn2c(-c3nnc(C)o3)cc3ccccc32)cc1,109
11,O=C(NCCS(=O)(=O)N1CCC2(CC1)OCCO2)c1ccc2c(c1)OCO2,110
12,Cc1ccc(C)c(NC(=O)Cn2ncn3nc4c(c3c2=O)CCCC4)c1,124
13,CC(C)c1ccc2nc(SCC(=O)Nc3c[nH]c(=O)[nH]c3=O)c(C#N)cc2c1,107
14,COc1ccc(S(=O)(=O)NCc2ccco2)cc1C(=O)O,107 ± 1.2
15,CCCc1cc(CNC(=O)C2CC(c3cnn(C)c3)=NO2)on1 (stereo not drawn),111
16,CCc1ccc(-n2nc(-c3nc(-c4ccncc4)no3)c3ccccc3c2=O)cc1,109
17,COC(=O)COc1cc2c(-c3cc4cccc(OC)c4o3)cc(=O)oc2cc1C,126
18,Cc1onc(-c2ccccc2)c1C(=O)N1CCc2ccccc2C1,104
19,O=c1c2ccccc2nc2c3ccccc3c(Cl)nn12,111 ± 8.1
20,CC(=O)c1cccc(NC(=O)NC2CC3CCC(C2)N3Cc2ccc(F)cc2)c1 (stereo not drawn),99.2
21,O=C(Cn1c2c(c(=O)n3ncnc13)CCC2)Nc1ccccc1,113
22,CCn1nc(C)c2[nH]c(=S)n(CC3CCCO3)c(=O)c21 (stereo not drawn),106
23,O=C(CSc1ncnc2sc3c(c12)CCCC3)Nc1ccc(Br)cc1,109

row,SMILES,host macrophage viability [%]
1,CCOC(=O)C1=C(C)N=c2s/c(=C/c3cc([N+](=O)[O-])ccc3O)c(=O)n2C1c1cccs1 (stereo not drawn),107
2,COc1ccc(OC)c(NS(=O)(=O)c2cc(-c3ccn[nH]3)cs2)c1,115
3,O=C(CN1C(=O)S/C(=C\c2ccccc2)C1=O)NCCN1C(=O)CSC1=O,118
4,Cc1cc(C)c2sc(NNC(=O)C3COc4ccccc4O3)nc2c1 (stereo not drawn),107 ± 16
5,Cc1nn(-c2ccccc2)c2[nH]c(=O)c(CNC(c3ccccc3)c3ccco3)cc12 (stereo not drawn),115
6,O=C(Nc1ccc(Cl)cn1)c1ccc(SCCN2CCOCC2)nc1,110
7,COc1ccc2c(C)cc(SCC(=O)Nc3c(C)cccc3C)nc2c1,113
8,N#Cc1c(NC(=O)CSc2nnc3sc4ccccc4n23)sc2c1CCC2,116
9,Cc1cc(=O)[nH]c2c(C)cc(S(=O)(=O)Nc3ccc(O)cc3)cc12,132
10,COc1cc(/C=C(\C#N)c2nc(-c3ccc(F)cc3)cs2)cc([N+](=O)[O-])c1O,76.4
11,O=C(CN1CCC(n2cnc3cccnc32)CC1)Nc1nccs1,109
12,CCn1cc(C(=O)Nc2ccc(F)c(F)c2)c2nn(-c3ccccc3)c(=O)c-2c1,97.7
13,COc1ccc(Cl)cc1S(=O)(=O)Nc1ccc(-c2nnc(-c3ccccc3)o2)cc1,118
14,C=CCn1ccn(-c2cccc(Cl)c2)c(=O)c1=O,122
15,Cc1ccccc1-c1nc2n(CC(=O)Nc3nccs3)c(C)cc(=O)n2n1,122
16,Cc1nnc(NC(=O)CSc2nc(-c3ccccc3C)nc3cc(=O)[nH]n23)s1,102
17,CCOC(=O)c1sc2nc(NC(=O)c3ccc(N(C)C)cc3)sc2c1C,109
18,CCCN1CCN(c2ncnc3sc(C(=O)NCC4CCCO4)c(C)c23)CC1 (stereo not drawn),128
19,Clc1cccc(-n2ncc3c(NCc4ccco4)ncnc32)c1,120
20,Cc1cc(-n2ccnc(NCCc3ccccc3)c2=O)ccc1Br,130
21,COc1cc(N2CCn3c(nc4cc(Cl)ccc43)C2)ccc1NS(C)(=O)=O,119
22,Nc1nc(SCC(=O)NCc2ccc(F)cc2)[nH]c(=O)c1NC(=O)c1ccc(F)c(F)c1,104
